PubChem BioAssay AID651640 (Broad Institute, 2012)
The whole screen tested about 350,000 compounds, of which about 6,000 (1.7%) were called active. Inconclusive results, whose numbers are uncertain, are shown with a selection of clear calls. No stated cut-off is given here; in the data, active means CPE inhibition above about 20% (passing the limit was not always enough); inconclusive means no clear call, values can overlap the other calls; tested in BHK-21 cells.

assay: protection of cells from dengue 2 killing – plate reader, single concentration, primary screen (AID 651640); settings: DENV2-infected cells, cytopathic effect rescue, at 9.99 µM, hits give high values;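 further: 0% = median of neutral control wells and 100% = median of positive control wells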

Row | SMILES | CPE inhibition
1 | O=C1CC2(CCN(C(=O)COc3ccc(F)cc3)CC2)Oc2ccccc21 | active: 29.9%
2 | O=C(O)c1sc2ncccc2c1OCc1ccccc1 | inconclusive: 23%
3 | O=C(C[C@@H]1C[C@@H]2c3cc(NC(=O)C4CCC4)ccc3O[C@@H]2[C@H](CO)O1)NC1CCCC1 | inactive: 0.666%
4 | O=C(C1=C[C@H](c2ccc(Br)cc2)C[C@H](OCc2ccc(CO)cc2)O1)N1CCCCCCC1 | inactive: 8.54%
5 | COC(=O)c1ccc(CNC(=O)CCc2c[nH]c3ccccc23)cc1 | inactive: 2.8%
6 | CCCCN(C(=O)CSc1nnc(-c2ccccc2)o1)c1c(N)n(CCC)c(=O)[nH]c1=O | active: 79.5%
7 | C[C@@H]1CN([C@H](C)CO)C(=O)c2cccc(N(C)C)c2O[C@@H]1CN(C)C(=O)Nc1ccc(C(F)(F)F)cc1 | inconclusive: 21.8%
8 | O=C(NCC1CC1)[C@@H]1[C@@H](CO)[C@@H]2Cn3c(ccc(-c4ccc(F)cc4)c3=O)[C@H]1N2 | inconclusive: 23.7%
9 | O=C(Nc1ccc(F)cc1)N1CC(=O)N2[C@H](CO)[C@@H](c3ccc(C#Cc4cccnc4)cc3)[C@H]2C1 | inactive: -7.79%
10 | C#CCn1c(=NC(=O)CN2C(=O)CCC2=O)sc2cccc(C)c21 | inconclusive: 55.3%
11 | O=C1COCCOCCOCCOCC(=O)NCCN1 | active: 26.3%
12 | CCOc1ccc2nc(N3CCC(C(=O)N4CCN(C5CCCCC5)CC4)CC3)sc2c1 | inconclusive: 20.5%
13 | COc1cccc(COC(=O)C2CCN(S(=O)(=O)c3cccs3)CC2)c1OC | inconclusive: 22.8%
14 | O=[N+]([O-])c1ccc(C=NN2CCCCCC2)cc1 | inconclusive: 30.5%
15 | CN1CCN(C(=O)c2ccc(-n3cccn3)nc2)CC1 | inactive: -8.14%
16 | CCCCC1C(=O)N(c2ccccc2)N(c2ccc(O)cc2)C1=O (configuration not stated) | inactive: -1.12%
17 | Cc1nc(NC(=O)c2ccco2)sc1-c1csc(Nc2ccc(Cl)cc2)n1 | inconclusive: 89%
18 | O=C(C[C@H]1CC[C@@H](NC(=O)c2ccc(F)cc2)[C@H](CO)O1)NCCc1ccccc1 | inconclusive: 20.5%
19 | CCC(=O)N(C)C[C@H]1Oc2cc(C#Cc3ccccc3)ccc2S(=O)(=O)N([C@@H](C)CO)C[C@@H]1C | inactive: -8.1%
20 | O=C(Nc1ccnn1C1CCN(Cc2ccc(F)cc2)CC1)C1CC1 | inconclusive: 24.8%
21 | C[C@H]1CCCCO[C@H](CN(C)C(=O)Nc2cccc3ccccc23)[C@@H](C)CN([C@@H](C)CO)C(=O)c2cc(NC(=O)Nc3ccccc3)ccc2O1 | inactive: 4.94%
22 | COc1ccc(NC2c3ccccc3C(=O)N2c2ccccn2)cc1Cl (configuration not stated) | inconclusive: 21%
23 | COc1cc2nc(CN3CCN(S(=O)(=O)c4cc(C)ccc4C)CC3)[nH]c(=O)c2cc1OC | inconclusive: 48.4%
24 | O=C(c1ccncc1)N1CC(=O)N2[C@@H](CO)[C@@H](c3ccc(-c4ccccc4F)cc3)[C@@H]2C1 | inconclusive: 25%

Given tab-delimited: part of the list above.
Row	SMILES	CPE inhibition
11	O=C1COCCOCCOCCOCC(=O)NCCN1	active: 26.3%
12	CCOc1ccc2nc(N3CCC(C(=O)N4CCN(C5CCCCC5)CC4)CC3)sc2c1	inconclusive: 20.5%
13	COc1cccc(COC(=O)C2CCN(S(=O)(=O)c3cccs3)CC2)c1OC	inconclusive: 22.8%
14	O=[N+]([O-])c1ccc(C=NN2CCCCCC2)cc1	inconclusive: 30.5%

Additional results follow.

Row | SMILES | CPE inhibition
25 | C=CCNC(=O)COC(=O)c1cc(S(=O)(=O)N2CCCCC2)ccc1Cl | inactive: 6.13%
26 | CC(=O)Oc1ccc(C2C3=C(CC(C)(C)CC3=O)Nc3cc4c(cc32)OCCO4)cc1 (configuration not stated) | inconclusive: 20.5%
27 | COc1ccccc1C(=O)NC(=O)COc1ccc([N+](=O)[O-])cc1 | inconclusive: 51.7%
28 | O=[N+]([O-])c1ccc(C2NS(=O)(=O)N=C3CCCCCN32)cc1 (configuration not stated) | inconclusive: 25.3%
29 | Cc1cccc(S(=O)(=O)N2C[C@H](O)COC[C@@H]3O[C@H](CC(=O)Nc4ccccc4)CC[C@H]32)c1 | inconclusive: 61.6%
30 | O=C(COC(=O)c1cc[n+]([O-])cc1)NC(=O)c1ccc(OC(F)F)cc1 | inconclusive: 22.8%
31 | CCC(=O)N1C[C@@H](C)[C@H](OC)CN(C)C(=O)c2cc(NC(=O)c3ccccc3)ccc2OC[C@H]1C | inactive: -1.06%
32 | CN(C(=O)c1cccc(NC(=O)Cc2cccc([N+](=O)[O-])c2)c1)C1CCCC1 | inconclusive: 36.6%
33 | CCCc1ccc2oc(C(=O)N(C)Cc3cnccn3)c(C)c2c1 | inconclusive: 53.9%
34 | COc1ccc(CCC(=O)OCC(=O)N(C)c2c(N)n(Cc3ccccc3)c(=O)[nH]c2=O)cc1 | inactive: 5.71%
35 | Cc1ccc(S(=O)(=O)Nc2cccc3c2O[C@@H](CN(C)S(=O)(=O)c2ccc(F)cc2)[C@H](C)CN([C@H](C)CO)C3=O)cc1 | inconclusive: 46.9%
36 | CN(C)S(=O)(=O)c1ccc(Cl)c(NC(=O)CSc2nc3c(cc2C#N)C(=O)CC(C)(C)C3)c1 | active: 30.8%
37 | Cc1ccc(NC(=O)CN(C)C(=O)c2ccc(Cl)nc2)cc1 | inconclusive: 25.8%
38 | COc1ccc(NC(=O)Nc2ccc3c(c2)C(=O)N([C@@H](C)CO)C[C@@H](C)[C@H](CN(C)C(=O)Nc2ccc(F)cc2)O3)cc1 | active: 20.6%
39 | C[C@H](CO)N1C[C@H](C)[C@@H](CN(C)CC2CCCCC2)Oc2ccc(NC(=O)Cn3cnnn3)cc2C1=O | inconclusive: 68.3%
40 | O=[N+]([O-])c1ccc(OCCN2CCNCC2)cc1 | inconclusive: 20%
41 | Cc1nc2cc(C)c(C)cc2s1 | inconclusive: 20%
42 | COc1ccc(C#Cc2ccc3c(c2)[C@]2(C(=O)N3)[C@H](C(=O)N3CCc4cc(OC)c(OC)cc4C3)[C@H]3C(=O)O[C@H](c4ccccc4)[C@H](c4ccccc4)N3[C@@H]2c2ccccc2OCCO)cc1 | inconclusive: 20.5%
43 | Cc1ccc(NC(=O)c2cc(S(=O)(=O)N3CCCCC3)ccc2N2CCOCC2)c(C)c1 | inconclusive: 27%
44 | Cc1noc(C)c1NC(=O)Nc1ccc2c(c1)C(=O)N([C@H](C)CO)C[C@H](C)[C@H](CN(C)C(=O)Nc1cccc3ccccc13)O2 | inactive: 2.45%
45 | O=C(NCC1CCCCC1)[C@H]1[C@H](CO)[C@H]2Cn3c(cccc3=O)[C@@H]1N2C(=O)c1ccncc1 | inconclusive: 66%
46 | CC(=O)N1CCN(S(=O)(=O)c2cccc(C(=O)NC3CCCC3)c2)CC1 | inconclusive: 29.2%
47 | COc1ccc(OCC(=O)NNc2nc3ccccc3s2)cc1 | inconclusive: 24.3%
